Results taken from PubChem BioAssay AID624297 (National Center for Advancing Translational Sciences (NCATS), 2012).
Out of some 340,000 compounds screened, about 6,200 (1.8%) were called active. This list was built around the results that the source calls inconclusive (neither active nor inactive); the mix of calls is not that of the screen. Calls follow the shape of the dose curve; as a rule, active = well fitted activation curve with a large enough effect; inconclusive = small, poorly fitted or top-dose-only effect; inactive = no such curve, though single readings can be large or run the other way. Where the call is inconclusive, the potency comes from a doubtful curve fit.

Assay: A quantitative high throughput screen for small molecules that induce DNA re-replication in SW480 colon adenocarcinoma cells. Also: nearly all actives have a fitted effect of over 55% in size. As to re-replication activation: % of control where 0% means no effect.
Conditions: Hoechst DNA content imaging, 48 h; re-replication activation: at 46.1 µM (top of the series) unless noted
In short: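 Image-based read-out: total Hoechst fluorescence of nuclei (405 nm excitation, 500-530 nm emission), with hits raising the fraction of high-intensity nuclei. SW480 colon cells incubated 48 hr with compounds at 37 C.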
Potency is read from the fitted curve at half-maximal effect.

Row | Structure (SMILES) | Potency | re-replication activation
1 | O=C(Nc1ccccc1)c1ccc(NC2CCCCC2)c(S(=O)(=O)N2CCOCC2)c1 | inactive | 
2 | O=C(O)C1C(=O)NCC1c1ccccc1 (stereo not given) | inconclusive: 29.1 µM [activator, single point] | 
3 | COc1ccccc1CNC(=O)C1CC2Cn3c(nc4ccccc43)C2N1C (stereo not given) |  | inactive: -29.8% [at 9.22 µM]
4 | Fc1ccc(C(c2nnnn2CCc2ccccc2)N2CCCc3ccccc32)cc1 (stereo not given) | inconclusive: 23.1 µM [activator, partial curve, poor fit] | 
5 | O=C(NNC(=O)c1ccc(F)cc1)C(=O)N1CCCCC1 | inactive | 
6 | Cc1cc(C)cc(C(=O)N(CCc2ccccc2)C2CC3CCC(C2)N3C)c1 (stereo not given) | inconclusive: 29.1 µM [activator, single point] | 
7 | CCCCN1CCN=C1N(C)C | inconclusive: 6.51 µM [activator, single point] | 
8 | CCCCN(C(=O)c1cccc(S(=O)(=O)N(C)c2ccc(C)cc2)c1)c1c(N)n(CCCC)c(=O)[nH]c1=O | inconclusive: 7.31 µM [activator, single point] | 
9 | CC(C)C1Cc2c(sc3c2c(=O)n(-c2ccccc2)c2n[nH]c(=S)n32)CO1 (stereo not given) | inactive | 
10 | CC(=O)OC(C)C1C2=C(C(=O)CC1(C)O)C(=O)c1c(ccc(-c3ccc4c(c3O)C(=O)C3=C(C4=O)C(C(C)OC(C)=O)C(C)(O)CC3=O)c1O)C2=O (stereo not given) | inactive | 
11 | Cc1c(O)c(=O)ccn1Cc1ccccc1 | inconclusive: 20.6 µM [activator, single point] | 
12 | CCOc1ccc(NC(=S)N(CCc2c(C)[nH]c3ccccc23)Cc2ccco2)cc1 | inconclusive: 29.1 µM [activator, single point] | 
13 | O=[N+]([O-])c1ccc(N=Cc2ccc(Br)c([N+](=O)[O-])c2)cc1 | inconclusive: 15.8 µM [activator, single point] | 
14 | O=[N+]([O-])c1ccc(Nc2nc(NC3CCCCC3)nc(N3CCCC3)n2)cc1 | inconclusive: 18.4 µM [activator, single point] | 
15 | CCOC(=O)c1cc2c(=O)n3ccccc3nc2n(CCOC)c1=NC(=O)c1ccncc1 | inactive | 
16 | CCOc1ccccc1NC(=O)COC(=O)/C=C/c1ccc(OC)c(OC)c1 | inconclusive: 18.4 µM [activator, single point] | 
17 | Cc1ccc(S(=O)(=O)N(C)Cc2ccc(C(=O)NN=C(CC(C)C)CC(C)C)cc2)cc1 | inconclusive: 0.058 µM [activator, full curve, poor fit] | 
18 | CCOC(=O)c1c(C)[nH]c(C)c1C(=O)CSc1nc2ccccc2c(=O)n1-c1ccccc1C | inconclusive: 16.4 µM [activator, single point] | 
19 | CC(C)Oc1ccc(C(=O)NC2(C(F)(F)F)NC(=O)N(CCCc3ccccc3)C2=O)cc1 (stereo not given) | inconclusive: 0.92 µM [activator, full curve, poor fit] | 
20 | Cc1c(NC(=O)c2ccc(Cl)c([N+](=O)[O-])c2)cccc1-n1cnnn1 | inconclusive: 18.4 µM [activator, partial curve, poor fit] | 
21 | Cc1cc(Nc2ccccc2)n(-c2cccc(Cl)c2)n1 | inconclusive: 9.2 µM [activator, partial curve, poor fit] | 
22 | O=[N+]([O-])c1ncn(Cc2c(Cl)cccc2Cl)n1 | inconclusive: 23.1 µM [activator, partial curve, poor fit] | 

Row | Structure (SMILES) | Potency | re-replication activation
23 | C=CCNc1nc(-c2ccc(O)c(C(N)=O)c2)cs1 | inconclusive: 16.4 µM [activator, single point] | 
24 | COc1ccccc1NC(=O)NCc1ccco1 | inconclusive: 0.326 µM [activator, partial curve, poor fit] | 
25 | Cc1c(C=O)c(C=O)c(C)n1Cc1ccccc1 | inconclusive: 23.1 µM [activator, partial curve, poor fit] | 
26 | c1ccc(C2=Nc3c(ccc4ccccc34)C(c3ccncc3)=NN2)cc1 | inconclusive: 29.1 µM [activator, single point] | 
27 | CCOc1ccc(N(CC(=O)NCc2ccccc2C)S(C)(=O)=O)cc1 | inconclusive: 29.1 µM [activator, single point] | 
28 | Cc1cc([N+](=O)[O-])cc(/C=N/n2c(C)nc3ccccc3c2=O)c1O | inconclusive: 18.4 µM [activator, single point] | 
29 | CCCCNc1c(-c2ccc(-c3ccc(OC)cc3)c(OC)c2)nc2ccccn12 | inconclusive: 20.6 µM [activator, single point] | 
30 | S=C(c1ccc(-c2ccccc2Cl)o1)N1CCCCC1 | inactive | 
31 | NC(=O)C1CCCN(CC(O)COCc2ccc(Cl)cc2)C1 (stereo not given) | inactive | 
32 | O=C(N/N=C/c1cc(Br)c(Br)o1)C(O)c1ccccc1 (stereo not given) | inconclusive: 6.51 µM [activator, partial curve, poor fit] | 
33 | C=C1C(O)[C@@H]2O[C@]3(CC[C@H](/C=C/C(C)[C@@H]4CC(C)=CC5(O[C@H](C[C@@](C)(O)CO)CCC5O)O4)O3)CC[C@H]2O[C@@H]1C(O)CC(C)[C@H]1OC2(CCCCO2)CCC1C (stereo not given in full) | inconclusive: 0.116 µM [activator, full curve, poor fit] | 
34 | CN1CCN(c2nc(-c3cccnc3)nc3scc(-c4ccccc4)c23)CC1 | inconclusive: 29.1 µM [activator, partial curve, poor fit] | 
35 | CCN(CC)CCNC(=O)c1ccc(NC(=O)c2cccc(-n3cnnn3)c2)cc1 | inactive | 
36 | COc1ccc(C)cc1NC(=O)CN(C)S(=O)(=O)c1cnc[nH]1 | inconclusive: 16.4 µM [activator, partial curve, poor fit] | 
37 | COc1ccc(S[C@@H](CCN2CC[C@H](NC(=O)OCc3ccccc3)CCC2=O)c2ccccc2)cc1 | inconclusive: 2.91 µM [activator, partial curve, poor fit] | 
38 | O=C(c1ccc(NS(=O)(=O)c2ccc(Cl)cc2)cc1)N1CCOCC1 | inconclusive: 11.6 µM [activator, single point] | 
39 | COCC1CCN(C(=O)c2ccc3oc(Cc4ccccc4)nc3c2)C1 (stereo not given) | inconclusive: 29.1 µM [activator, single point] | 
40 | O=C(CN(Cc1ccccc1)S(=O)(=O)c1ccc2c(c1)OCCO2)N/N=C/c1ccc(F)cc1 | inactive | 
41 | CCCC1=Nc2cc(C(=O)NCCCN3CCN(C)CC3)ccc2Sc2ccccc21 | inconclusive: 32.6 µM [activator, partial curve, poor fit] | 
42 | O=C(/C=C/c1ccccc1)NC(=S)Nc1ccccc1 | inconclusive: 29.1 µM [activator, single point] | 
43 | O=C(COc1ccccc1Br)NC(=O)NC1CCCC1 | active: 14.6 µM | 
44 | COCCNCC(=O)Nc1nc(C)cs1 | inconclusive: 29.1 µM [activator, single point] | 

Exported with tabs: 14 of the compounds above.
Row	Structure (SMILES)	Potency	re-replication activation
11	Cc1c(O)c(=O)ccn1Cc1ccccc1	inconclusive: 20.6 µM [activator, single point]	
12	CCOc1ccc(NC(=S)N(CCc2c(C)[nH]c3ccccc23)Cc2ccco2)cc1	inconclusive: 29.1 µM [activator, single point]	
13	O=[N+]([O-])c1ccc(N=Cc2ccc(Br)c([N+](=O)[O-])c2)cc1	inconclusive: 15.8 µM [activator, single point]	
14	O=[N+]([O-])c1ccc(Nc2nc(NC3CCCCC3)nc(N3CCCC3)n2)cc1	inconclusive: 18.4 µM [activator, single point]	
15	CCOC(=O)c1cc2c(=O)n3ccccc3nc2n(CCOC)c1=NC(=O)c1ccncc1	inactive	
16	CCOc1ccccc1NC(=O)COC(=O)/C=C/c1ccc(OC)c(OC)c1	inconclusive: 18.4 µM [activator, single point]	
17	Cc1ccc(S(=O)(=O)N(C)Cc2ccc(C(=O)NN=C(CC(C)C)CC(C)C)cc2)cc1	inconclusive: 0.058 µM [activator, full curve, poor fit]	
18	CCOC(=O)c1c(C)[nH]c(C)c1C(=O)CSc1nc2ccccc2c(=O)n1-c1ccccc1C	inconclusive: 16.4 µM [activator, single point]	
19	CC(C)Oc1ccc(C(=O)NC2(C(F)(F)F)NC(=O)N(CCCc3ccccc3)C2=O)cc1 (stereo not given)	inconclusive: 0.92 µM [activator, full curve, poor fit]	
20	Cc1c(NC(=O)c2ccc(Cl)c([N+](=O)[O-])c2)cccc1-n1cnnn1	inconclusive: 18.4 µM [activator, partial curve, poor fit]	
21	Cc1cc(Nc2ccccc2)n(-c2cccc(Cl)c2)n1	inconclusive: 9.2 µM [activator, partial curve, poor fit]	
22	O=[N+]([O-])c1ncn(Cc2c(Cl)cccc2Cl)n1	inconclusive: 23.1 µM [activator, partial curve, poor fit]	
23	C=CCNc1nc(-c2ccc(O)c(C(N)=O)c2)cs1	inconclusive: 16.4 µM [activator, single point]	
24	COc1ccccc1NC(=O)NCc1ccco1	inconclusive: 0.326 µM [activator, partial curve, poor fit]	

Further entries follow.

Row | Structure (SMILES) | Potency | re-replication activation
45 | CCNC(=S)NNC(=O)c1cccnc1 | inactive | 
46 | N#CN(Cc1ccccc1)Cc1ccccc1 | inconclusive: 3.26 µM [activator, full curve] | 
47 | Nn1c(SCc2ccc(F)cc2)nnc1-c1ccncc1 | inconclusive: 23.1 µM [activator, single point] | 
48 | CCn1c2ccccc2c2cc(NC(=O)c3ccc([N+](=O)[O-])cc3)ccc21 | inactive | 
49 | Cc1ccc2[nH]c3c(c2c1)CN(C(=O)CN1CCN(c2cccc(C)c2C)CC1)CC3 | inconclusive: 29.1 µM [activator, partial curve, poor fit] | 
50 | NC(=O)c1ccc(N2CCN(c3ccccc3F)CC2)c([N+](=O)[O-])c1 | inactive | 
51 | Clc1nnc(N/N=C/c2ccccc2)c2ccccc12 | inconclusive: 18.4 µM [activator, single point] | 
52 | COc1ccc(Nc2nc(N)c([N+](=O)[O-])c(NC3CCCCC3)n2)cc1 | inconclusive: 10.3 µM [activator, partial curve, poor fit] | 
53 | COc1ccc(-c2c(C#N)c(N)nc(Sc3ccc(Cl)cc3)c2C#N)cc1 | inconclusive: 29.1 µM [activator, single point] | 
54 | CC(C)c1onc(C(=O)NC2CCCCC2)c1[N+](=O)[O-] | inconclusive: 16.4 µM [activator, single point] | 
55 | O=C(O)Cc1c[nH]c2ccc(O)cc12 | inconclusive: 11.2 µM [activator, partial curve, poor fit] | 
56 | CON(C)C(=O)CC(CN(Cc1ccccc1)C(=O)OC(C)(C)C)c1ccc(Cl)cc1 (stereo not given) | inconclusive: 3.26 µM [activator, partial curve, poor fit] | 
57 | CCn1c(SCc2ccc(OC)c(F)c2)nc2ccccc2c1=O | inactive | 
58 | CCOc1cnn(Cc2ccccc2)c(=O)c1SCc1ccccc1 | inconclusive: 29.1 µM [activator, partial curve, poor fit] | 
59 | COc1ccc2cc3cc(C(=O)Nc4ccccc4N4CCN(C)CC4)oc3nc2c1 | inconclusive: 29.1 µM [activator, partial curve, poor fit] | 
60 | COC(=O)C1=C(C(=O)OC)SC(=C2C(=S)C(C)(C)N(C(=O)C3CC3)c3ccccc32)S1 | inactive | 
61 | CCCCCCCN1C(Nc2ccccc2)=NC[C@@H]1Cc1ccccc1 |  | inactive: 8.09% [at 9.22 µM]
62 | O=C1Nc2ccccc2N(O)N1c1ccc(Cl)cc1 | inactive | 
63 | CN(C)c1ccc(C(=O)OCC(=O)c2ccc[nH]2)cc1 | inactive | 
64 | O=C(/C=C/c1cccc([N+](=O)[O-])c1)Nn1c(-c2ccccc2F)nc2ccccc2c1=O | inconclusive: 23.1 µM [activator, single point] | 
65 | COC(=O)C1=C(C)N(CC2CC2)C(=NCc2cccc(Cl)c2)N[C@H]1c1ccccc1 | inconclusive: 0.0651 µM [activator, full curve, poor fit] | 
